{"source": "patent US7365084B2", "about": "“Cycloalkyl-substituted amino acid derivatives, processes for their preparation and their use as pharmaceuticals” (SanoFi-Aventis Deutschland GmbH, priority 2003, dated 2008)", "note": "Some results were stated once for a whole list of compounds, not compound by compound."}
{"molecular_target": "T1, human PPARalpha receptor (GR-GAL4-humanPPARalpha-LBD fusion protein) (Homo sapiens, UniProt Q07869)", "T1 construct": "amino acids S167-Y468; expressed in transfected cells; host or cells: HEK (human embryo kidney) cells, stably transfected with pcDNA3 carrying the fusion construct", "T1 sequence (Q07869 167-468)": "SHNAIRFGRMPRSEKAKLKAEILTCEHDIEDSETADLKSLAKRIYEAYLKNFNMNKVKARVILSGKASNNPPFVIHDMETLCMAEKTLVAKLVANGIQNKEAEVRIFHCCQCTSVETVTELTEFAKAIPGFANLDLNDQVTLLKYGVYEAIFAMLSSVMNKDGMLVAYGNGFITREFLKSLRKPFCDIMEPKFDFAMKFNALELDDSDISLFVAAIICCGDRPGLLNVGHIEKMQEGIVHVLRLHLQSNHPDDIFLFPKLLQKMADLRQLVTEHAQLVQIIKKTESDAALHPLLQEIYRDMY", "assay": "Cellular PPARalpha assay (stably transfected HEK luciferase reporter cell line)", "format": "cell-based", "conditions": "range stated in text for Examples 1 to 50; units given in the value", "description": "(A) Determination of EC50 Values of PPAR Agonists in the Cellular PPARalpha Assay\nThe potency of substances which bind to human PPAR[…] and activate in an agonistic manner is analyzed using a stably transfected HEK cell line (HEK=human embryo kidney) which is referred to here as PPARalpha reporter cell line. It contains two genetic elements, a luciferase reporter element (pΔM-GAL4-Luc-Zeo) and a PPARalpha fusion protein (GR-GAL4-humanPPARα-LBD) which mediates expression of the luciferase reporter element depending on a PPARalpha ligand. The stably and constitutively expressed fusion protein GR-GAL4-humanPPARalpha-LBD binds in the cell nucleus of the PPARalpha reporter cell line via the GAL4 protein portion to the GAL4 DNA binding motifs 5′-upstream of the luciferase reporter element which is integrated in the genome of the cell line. There is only little expression of the luciferase reporter gene without addition of a PPARalpha ligand if fatty acid-depleted fetal calf serum (cs-FCS) is used in the assay. PPARα ligands bind and activate the PPARα fusion protein and thereby bring about expression of the luciferase reporter gene. The luciferase which is formed can be detected by means of chemi-luminescence via an appropriate substrate.\nThe PPARalpha reporter cell line was prepared in 2 stages. Firstly, the luciferase reporter element was constructed and stably transfected into HEK cells. For this purpose, five binding sites of the yeast transcription factor GAL4 (each 5′-CGGAGTACTGTCCTCCGAG-3′) (SEQ ID NO:1) were cloned in 5′-upstream of a 68 bp-long minimal MMTV promoter (Genbank Accession # V01175). The minimal MMTV promoter section contains a CCAAT box and a TATA element in order to enable efficient transcription by RNA polymerase II. The cloning and sequencing of the GAL4-MMTV construct took place in analogy to the description of Sambrook J. et. al. (Molecular cloning, Cold Spring Harbor Laboratory Press, 1989). Then the complete Photinus pyralis gene (Genbank Accession # M15077) was cloned in 3′-downstream of the GAL4-MMTV element. After sequencing, the luceriferase reporter element consisting of five GAL4 binding sites, MMTV promoter and luciferase gene was recloned into a plasmid which confers zeocin resistance in order to obtain the plasmid pΔM-GAL4-Luc-Zeo. This vector was transfected into HEK cells in accordance with the statements in Ausubel, F. M. et al. (Current protocols in molecular biology, Vol. 1-3, John Wiley & Sons, Inc., 1995). […] In a second step, the PPARalpha fusion protein (GR-GAL4-humanPPARalpha-LBD) was introduced into the stable cell clone described. For this purpose, initially the cDNA coding for the N-terminal 76 amino acids of the glucocorticoid receptor (Genbank Accession # P04150) was linked to the cDNA section coding for amino acids 1-147 of the yeast transcription factor GAL4 (Genbank Accession # P04386). The cDNA of the ligand-binding domain of the human PPARalpha receptor (amino acids S167-Y468; Genbank Accession # S74349) was cloned in at the 3′-end of this GR-GAL4 construct. The fusion construct prepared in this way (GR-GAL4-humanPPARalpha-LBD) was recloned into the plasmid pcDNA3 (from Invitrogen) in order to enable constitutive expression therein by the cytomegalovirus promoter. This plasmid was linearized with a restriction endonuclease and stably transfected into the previously described cell clone containing the luciferase reporter element. The finished PPARalpha reporter cell line which contains a luciferase reporter element and constitutively expresses the PPARalpha fusion protein (GR-GAL4-human PPARalpha-LBD) was isolated by selection with zeocin (0.5 mg/ml) and G418 (0.5 mg/ml).\nThe activity of PPARalpha agonists is determined in a 3-day assay which is described below: […]", "units": {"EC50": "nM"}}
{"compound": "COc1cccc(-c2nc(COC3CCCC(C(=O)N[C@H](C(=O)O)C(C)C)C3)c(C)o2)c1", "note": "(stereo partly drawn) [Example 9, (S)-2-({(1R,3S)/(1S,3R)-3-[2-(3-Methoxaphenyl)-5-methyloxazol-4-ylmethoxy]cyclohexanecarbonyl}amino)-3-methylbutyric acid]", "EC50": "≥ 1"}
{"compound": "Cc1oc(-c2cccc(Br)c2)nc1COC1CCCC(C(=O)N[C@H](C(=O)O)C(C)C)C1", "note": "(stereo partly drawn) [Example 10, (S)-2-({(1R,3S)/(1S,3R)-3-[2-(3-Bromophenyl)-5-methyloxazol-4-ylmethoxy]cyclohexanecarbonyl}amino)-3-methylbutyric acid]", "EC50": "≥ 1"}
{"compound": "Cc1oc(-c2cccc(C(F)(F)F)c2)nc1COC1CCCC(C(=O)N[C@H](C(=O)O)C(C)C)C1", "note": "(stereo partly drawn) [Example 11, (S)-3-Methyl-2-({(1R,3S)/(1S,3R)-3-[5-methyl-2-(3-trifluoromethylphenyl)-oxazol-4-ylmethoxy]cyclohexanecarbonyl}amino)butyric acid]", "EC50": "≥ 1"}
{"compound": "Cc1ccc(-c2nc(COC3CCCC(C(=O)N[C@H](C(=O)O)C(C)C)C3)c(C(C)C)o2)cc1", "note": "(stereo partly drawn) [Example 12, (S)-2-{[(1R,3S)/(1S,3R)-3-(5-Isopropyl-2-p-tolyloxazol-4-ylmethoxy)-cyclohexanecarbonyl]amino}-3-methylbutyric acid]", "EC50": "≥ 1"}
{"compound": "COc1cccc(-c2nc(COC3CCCC(C(=O)N[C@H](C(=O)O)C(C)C)C3)c(C(C)C)o2)c1", "note": "(stereo partly drawn) [Example 13, (S)-2-({(1R,3S)/(1S,3R)-3-[5-Isopropyl-2-(3-methoxyphenyl)oxazol-4-ylmethoxy]cyclohexanecarbonyl}amino)-3-methylbutyric acid]", "EC50": "≥ 1"}
{"compound": "COc1cccc(-c2nc(COC3CCCC(C(=O)N[C@H](C(=O)O)C(C)C)C3)c(C(F)(F)F)o2)c1", "note": "(stereo partly drawn) [Example 15, (S)-2-({(1R,3S)/(1S,3R)-3-[2-(3-Methoxyphenyl)-5-trifluoromethyloxazol-4-ylmethoxy]cyclohexanecarbonyl}amino)-3-methylbutyric acid]", "EC50": "≥ 1"}
{"compound": "CC(C)[C@H](NC(=O)C1CCCC(OCc2nc(-c3cccc(C(F)(F)F)c3)oc2C(F)(F)F)C1)C(=O)O", "note": "(stereo partly drawn) [Example 16, (S)-3-Methyl-2-({(1R,3S)/(1S,3R)-3-[5-trifluoromethyl-2-(3-trifluoromethylphenyl)oxazol-4-ylmethoxy]cyclohexanecarbonyl}amino)butyric acid]", "EC50": "≥ 1"}
{"compound": "Cc1ccc(-c2nc(COC3CCCC(C(=O)N[C@H](C(=O)O)C(C)C)C3)c(C(F)(F)F)o2)cc1", "note": "(stereo partly drawn) [Example 17, (S)-3-Methyl-2-{[(1R,3S)/(1S,3R)-3-(2-p-tolyl-5-trifluoromethyloxazol-4-ylmethoxy)cyclohexanecarbonyl]amino}butyric acid]", "EC50": "≥ 1"}
{"compound": "Cc1ccc(-c2nc(COC3CCCC(C(=O)N[C@H](C(=O)O)C(C)C)C3)c(-c3ccccc3)o2)cc1", "note": "(stereo partly drawn) [Example 18, (S)-3-Methyl-2-{[(1R,3S)/(1S,3R)-3-(5-phenyl-2-p-tolyloxazol-4-ylmethoxy)cyclohexanecarbonyl]amino}butyric acid]", "EC50": "≥ 1"}
{"compound": "COc1cccc(-c2nc(COC3CCCC(C(=O)N[C@H](C(=O)O)C(C)C)C3)c(-c3ccccc3)o2)c1", "note": "(stereo partly drawn) [Example 19, (S)-2-({(1R,3S)/(1S,3R)-3-[2-(3-Methoxyphenyl)-5-phenyloxazol-4-ylmethoxy]cyclohexanecarbonyl}amino)-3-methylbutyric acid]", "EC50": "≥ 1"}
{"compound": "CCc1oc(-c2cccc(OC)c2)nc1COC1CCCC(C(=O)N[C@H](C(=O)O)C(C)C)C1", "note": "(stereo partly drawn) [Example 20, (S)-2-({(1R,3S)/(1S,3R)-3-[2-(3-Methoxyphenyl)-5-ethyloxazol-4-ylmethoxy]cyclohexanecarbonyl}amino)-3-methylbutyric acid]", "EC50": "≥ 1"}
{"compound": "CCc1oc(-c2ccc(C)cc2)nc1COC1CCCC(C(=O)N[C@H](C(=O)O)C(C)C)C1", "note": "(stereo partly drawn) [Example 21, (S)-3-Methyl-2-{[(1R,3S)/(1S,3R)-3-(5-ethyl-2-p-tolyloxazol-4-ylmethoxy)-cyclohexanecarbonyl]amino}butyric acid]", "EC50": "≥ 1"}
{"compound": "COc1cccc(-c2nc(COC3CCCC(C(=O)N[C@H](C(=O)O)C(C)C)C3)c(C3CCCCC3)o2)c1", "note": "(stereo partly drawn) [Example 22, (S)-2-({(1R,3S)/(1S,3R)-3-[2-(3-Methoxyphenyl)-5-cyclohexyloxazol-4-ylmethoxy]cyclohexanecarbonyl}amino)-3-methylbutyric acid]", "EC50": "≥ 1"}
{"compound": "Cc1ccc(-c2nc(COC3CCCC(C(=O)N[C@H](C(=O)O)C(C)C)C3)c(C3CCCCC3)o2)cc1", "note": "(stereo partly drawn) [Example 23, (S)-3-Methyl-2-{[(1R,3S)/(1S,3R)-3-(5-cyclohexyl-2-p-tolyloxazol-4-ylmethoxy)cyclohexanecarbonyl]amino}butyric acid]", "EC50": "≥ 1"}
{"compound": "Cc1ccc(-c2nc(COC3CCCC(C(=O)N(C)[C@H](C(=O)O)C(C)C)C3)c(C)o2)cc1", "note": "(stereo partly drawn) [Example 28, 3-Methyl-2-{methyl-[(1R,3S)/(1S,3R)-(5-methyl-2-p-tolyloxazol-4-ylmethoxy)cyclohexanecarbonyl]amino}butyric acid]", "EC50": "≥ 1"}
{"compound": "Cc1ccc(-c2nc(COC3CCCC(C(=O)N(Cc4ccccc4)[C@H](C(=O)O)C(C)C)C3)c(C)o2)cc1", "note": "(stereo partly drawn) [Example 29, (S)-2-{Benzyl-[(1R,3S)/(1S,3R)-3-(5-methyl-2-p-tolyloxazol-4-ylmethoxy)cyclohexanecarbonyl]amino}-3-methylbutyric acid]", "EC50": "≥ 1"}
{"compound": "CCCN(C(=O)C1CCCC(OCc2nc(-c3ccc(C)cc3)oc2C)C1)[C@H](C(=O)O)C(C)C", "note": "(stereo partly drawn) [Example 30, (S)-3-Methyl-2-{[(1R,3S)/(1S,3R)-3-(5-methyl-2-p-tolyloxazol-4-ylmethoxy)cyclohexanecarbonyl]propylamino}butyric acid]", "EC50": "≥ 1"}
{"compound": "Cc1ccc(-c2nc(COCC3CCCC(C(=O)N[C@H](C(=O)O)C(C)C)C3)c(C)o2)cc1", "note": "(stereo partly drawn) [Example 41]", "EC50": "≥ 1"}
{"compound": "CCc1oc(-c2ccc(C)c(C)c2)nc1COCC1CCCC(C(=O)N[C@H](C(=O)O)C(C)C)C1", "note": "(stereo partly drawn) [Example 42]", "EC50": "≥ 1"}
{"compound": "CC(C)c1oc(-c2ccc(C(F)(F)F)cc2)nc1COCC1CCCC(C(=O)N[C@H](C(=O)O)C(C)C)C1", "note": "(stereo partly drawn) [Example 43]", "EC50": "≥ 1"}
{"compound": "Cc1oc(-c2cccc(C(F)(F)F)c2)nc1COCC1CCCC(C(=O)N[C@H](C(=O)O)C(C)C)C1", "note": "(stereo partly drawn) [Example 44]", "EC50": "≥ 1"}
{"compound": "CCc1oc(-c2ccc(C(C)C)cc2)nc1COCC1CCCC(C(=O)N[C@H](C(=O)O)C(C)C)C1", "note": "(stereo partly drawn) [Example 45, (S)-2-({(1R,3S)/(1S,3R)-3-[5-Ethyl-2-(4-isoproyylphenyl)oxazol-4-ylmethoxymethyl]cyclohexanecarbonyl}amino)-3-methylbutyric acid]", "EC50": "≥ 1"}
{"compound": "CCc1oc(-c2ccc(C)cc2)nc1COCC1CCCC(C(=O)N[C@H](C(=O)O)C(C)C)C1", "note": "(stereo partly drawn) [Example 46]", "EC50": "≥ 1"}
{"compound": "COc1cccc(-c2nc(COCC3CCCC(C(=O)N[C@H](C(=O)O)C(C)C)C3)c(C3CCCCC3)o2)c1", "note": "(stereo partly drawn) [Example 47]", "EC50": "≥ 1"}
{"compound": "COc1cccc(-c2nc(COCC3CCCC(C(=O)N[C@H](C(=O)O)C(C)C)C3)c(C)o2)c1", "note": "(stereo partly drawn) [Example 48]", "EC50": "≥ 1"}
{"compound": "Cc1oc(-c2ccc(C(C)C)cc2)nc1COCC1CCCC(C(=O)N[C@H](C(=O)O)C(C)C)C1", "note": "(stereo partly drawn) [Example 49]", "EC50": "≥ 1"}
{"compound": "CCc1oc(-c2ccc(C(F)(F)F)cc2)nc1COCC1CCCC(C(=O)N[C@H](C(=O)O)C(C)C)C1", "note": "(stereo partly drawn) [Example 50]", "EC50": "≥ 1"}
